Entries after “also recorded” stand apart in the source; their conditions may differ. At least one structure is not confirmed: it was looked up by name or label, or the drawing left a doubt.
How the values were obtained:
Assay type in all cases: in vivo
IL-1β [1] = assay: Plasma (systemic) IL-1β by ELISA after tibial surgery; conditions: wild type mice, minocycline 40 mg/kg i.p., enrofloxacin 10 mg/kg or IL-1Ra 100 mg/kg given prior to surgery, vs surgery alone
Text: Mice were subjected to an open tibial fracture of the left hind paw with intramedullary fixation in aseptic conditions under general anaesthesia with isoflurane and analgesia with buprenorphineas previously described^18. Other groups of animals were not subjected to any intervention (naïve), or received anesthetic/analgesia alone, or underwent surgery with concurrent administration of minocycline, enrofloxacin, or IL-1 receptor antagonist (IL-1Ra). (For further details please refer to supplemental methods).
(§1) IL-6, TNF-α and IL-1β were measured by ELISA^19 (Biosource, CA; Bender Medsystem, CA, respectively). Hippocampal IL-1β was measured by ELISA (Bender Medsystem, CA), as previously described^20. To confirm reliability of dilution linearity and spike recovery cytokine measurement were also performed in mice in which inflammation was induced with i.p. LPS (0111:B4, Invivogen, CA). (For further details please refer to supplemental methods).
Mice were randomly assigned to the following groups: surgery under general anesthesia (S), surgery under general anesthesia plus minocycline (M), surgery under general anesthesia plus enrofloxacin (E), surgery under general anesthesia plus interleukin-1 receptor antagonist (IL-1Ra) (I), surgery in IL1R^−/− mice under general anesthesia (K), general anesthesia without surgery (A), and no intervention (naïve wild-type, or naïve IL1R^−/−). […]

microglia = assay: Hippocampal microglia anti-CD11b immunohistochemistry grading (0-3) after tibial surgery; conditions: wild type mice, 1 day after surgery
Text: Immunohistochemistry. Fixed brains were collected for immunohistochemical DAB staining for CD11 b and scored as previously described^21. (For further details please refer to supplemental methods).
Under terminal anesthesia with pentobarbital, mice were euthanized and perfused transcardially with ice-cold heparinized 0.1M phosphate buffer solution (PBS) followed by 4% paraformaldehyde in 0.1M PBS at pH 7.4 (VWR International, Lutterworth, Leicester, UK). The brains were harvested and post-fixed in 4% paraformaldehyde in 0.1M PBS at 4° C. and cryoprotected in 0.1M PBS solutions containing 15% sucrose for 24 hours (VWR International, Lutterworth, Leicester, UK) and then 30% sucrose for a further 48 hours. […]
Immunohistochemistry: Fixed brains were collected for immunohistochemical DAB staining for microglia activation using CD11 b and scored as previously described (13).
Methods: Adult C56BL/6J male mice were randomly assigned into groups that were: 1) untreated (naïve) animals; 2) tibial fracture under GA and analgesia; 3) 24 h following tibial surgery, i.p. injection of LPS (1 mg/kg) 4) LPS injection only. Separate cohorts of mice per group were assessed for inflammatory markers (plasma cytokines and microglial activation), or hippocampal-dependent memory using trace fear conditioning (TFC).

IL-6 = assay: Plasma (systemic) IL-6 by ELISA after tibial surgery; conditions: wild type mice, minocycline 40 mg/kg i.p., vs surgery alone
IL-1β [2] = assay: Hippocampal IL-1β by ELISA after tibial surgery; conditions: wild type mice, 6 h (minocycline, enrofloxacin) or 24 h (IL-1Ra) after surgery
Protocol: as §1
Under terminal anesthesia with pentobarbital, each mouse was euthanized and the brain quickly removed following decapitation. The hippocampus was dissected under microscopy on a frosted glass plate placed on top of crushed ice, then snap frozen and stored at −80° C. until processing. Each hippocampus was added to Iscove's culture medium containing 5% fetal calf serum (FCS) and a cocktail of enzyme inhibitors (in mM: 100 amino-n-caproic acid, 10 EDTA, 5 benzamidine-HCl, and 0.2 phenylmethylsulfonyl fluoride). […] IL-1β was measured in the supernatant from hippocampal extracts, which were appropriately diluted prior to measurement to fall on the linear portion of the sigmoid curve, using a commercially available ELISA kit (Bender Medsystem, CA). […]
Cytokine analyses: Systemic and hippocampal IL-1β was measured by ELISA (Bender Medsystem, CA; 1.2 pg/ml of sensitivity), as previously described (12).

C57-BL6 mice = assay: Fear conditioning, freezing to context after tibial surgery; conditions: wild type mice, surgery 30 min after training, tested three days later
Protocol: Fear conditioning tests. Mice were conditioned 30 minutes or 3 days prior to intervention by training with two cycles of tone and foot-shock pairings. In delay fear conditioning a foot-shock was administered during the last 2 seconds of each 20 seconds-lasting tone.
In trace fear conditioning, the foot-shock onset, lasting 2 seconds as in the previous paradigm, followed a 20-second gap after each tone termination. Three days after conditioning, mice were placed back in the original conditioning chamber for 270 seconds, where no tone or shock were presented, to assess recall of contextual fear memory. After 3 h mice were placed in a novel environment (different context from training) to test for auditory-cued memory. Following an initial baseline period of 135 seconds during which freezing was scored in absence of noise, the auditory cue was presented for the final 135 seconds of the test, and freezing was again recorded. (For further details please refer to supplemental methods).
The behavioral study was conducted using a conditioning chamber (Med. Associates Inc., St. Albans, VT, USA). The back- and the side-walls of the chamber were made of aluminium, whereas the front door and the ceiling were of transparent Plexiglas. The floor of the chamber consisted of 36 stainless steel rods (1 mm diameter) spaced 0.5 cm apart (center-to-center). […]

CN(C)c1ccc(O)c2c1C[C@H]1C[C@H]3[C@H](N(C)C)C(O)=C(C(N)=O)C(=O)[C@@]3(O)C(O)=C1C2=O [minocycline]
Plasma IL-1β after surgery, effect of treatment (IL-1β [1]): reduced the plasma concentrations of cytokines back to pre-surgery levels; also recorded: mitigated surgery-induced elevations in IL-1β and IL-6 in plasma | Reactive microgliosis in hippocampus (CD11b grading) after surgery, effect of treatment (microglia): prevented reactive microgliosis; also recorded: is prevented by administration of minocycline | Plasma IL-6 after surgery, effect of treatment (IL-6): reduced the plasma concentrations of cytokines back to pre-surgery levels; also recorded: mitigated surgery-induced elevations in IL-1β and IL-6 in plasma | Hippocampal IL-1β expression after surgery, effect of treatment (IL-1β [2]): mitigated surgery-induced, IL-1β-mediated, hippocampal inflammation | Hippocampal IL-1β expression after surgery, effect of treatment (IL-1β [2]; listed as Minocycline): reduced IL-1β expression in surgical animals to naïve levels | Freezing to context (delay fear conditioning) after surgery, effect of treatment (C57-BL6 mice): mitigated by minocycline; also recorded: mitigated the surgery-induced, decrement in freezing

From patent US12325744B2, “Methods for reducing post-operative cognitive dysfunction (POCD)” (The Kennedy Trust for Rheumatology Research, priority 2010, dated 2025)
